For at least one entry, the source does not settle the construct or the ends of the probe. At least one result comes from cells or an extract, where the contact may be indirect. For some assays here: The comparison behind a weaker result is the experiment's own reference, which may not be listed here.
Columns and labels:
Experiment in all cases: EMSA
Settings in all cases: 20 uL: 1 uL IRDye 700 probe (50 nM), 2.5 ug COS-7 nuclear extract, 1x LI-COR Odyssey EMSA binding buffer, 2.5 mM DTT/0.25% Tween 20, 1 ug poly(dI-dC); 30 min …; protein in a lysate after overexpression; residues 1-474; protein details: Myc; label: IRDye 700 (IRD700 at 5' end of printed strand)
[1] = target: HNF4A2 R85W (human) (UniProt P41235)
[2] = target: HNF4A2 R85W/S87A (human) (UniProt P41235)
[3] = target: HNF4A2 R89W (human) (UniProt P41235)
[4] = target: HNF4A2 S87A (human) (UniProt P41235)
[5] = target: HNF4A2 WT (human) (UniProt P41235)

The chains behind the UniProt entries cited, without tags or fusion partners.
UniProt P41235, whole entry R85W: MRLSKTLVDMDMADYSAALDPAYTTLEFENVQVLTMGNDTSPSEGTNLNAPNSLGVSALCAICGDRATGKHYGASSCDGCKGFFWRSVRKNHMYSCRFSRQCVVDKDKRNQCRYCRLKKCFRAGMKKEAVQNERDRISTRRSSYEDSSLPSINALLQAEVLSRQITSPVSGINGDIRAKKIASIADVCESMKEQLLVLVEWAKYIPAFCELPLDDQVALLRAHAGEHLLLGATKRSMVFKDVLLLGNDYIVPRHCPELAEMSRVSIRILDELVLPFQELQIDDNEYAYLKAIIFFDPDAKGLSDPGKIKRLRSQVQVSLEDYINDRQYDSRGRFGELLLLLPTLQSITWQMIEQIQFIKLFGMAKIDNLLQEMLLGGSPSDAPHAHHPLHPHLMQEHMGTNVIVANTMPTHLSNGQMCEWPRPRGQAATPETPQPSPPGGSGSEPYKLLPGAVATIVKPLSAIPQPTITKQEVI
UniProt P41235, whole entry R85W/S87A: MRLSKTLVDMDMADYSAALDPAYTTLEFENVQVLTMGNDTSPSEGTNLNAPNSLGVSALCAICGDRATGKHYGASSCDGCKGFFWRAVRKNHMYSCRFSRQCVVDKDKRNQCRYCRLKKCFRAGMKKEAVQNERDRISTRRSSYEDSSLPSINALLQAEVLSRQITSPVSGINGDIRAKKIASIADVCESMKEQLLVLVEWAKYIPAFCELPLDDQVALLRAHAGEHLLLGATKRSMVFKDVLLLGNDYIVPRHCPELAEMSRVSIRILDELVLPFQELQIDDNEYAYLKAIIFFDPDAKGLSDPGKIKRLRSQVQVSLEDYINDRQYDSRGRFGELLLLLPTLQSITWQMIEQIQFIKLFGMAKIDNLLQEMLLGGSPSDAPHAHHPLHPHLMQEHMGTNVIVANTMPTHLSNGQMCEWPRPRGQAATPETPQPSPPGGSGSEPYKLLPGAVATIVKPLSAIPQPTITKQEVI
UniProt P41235, whole entry R89W: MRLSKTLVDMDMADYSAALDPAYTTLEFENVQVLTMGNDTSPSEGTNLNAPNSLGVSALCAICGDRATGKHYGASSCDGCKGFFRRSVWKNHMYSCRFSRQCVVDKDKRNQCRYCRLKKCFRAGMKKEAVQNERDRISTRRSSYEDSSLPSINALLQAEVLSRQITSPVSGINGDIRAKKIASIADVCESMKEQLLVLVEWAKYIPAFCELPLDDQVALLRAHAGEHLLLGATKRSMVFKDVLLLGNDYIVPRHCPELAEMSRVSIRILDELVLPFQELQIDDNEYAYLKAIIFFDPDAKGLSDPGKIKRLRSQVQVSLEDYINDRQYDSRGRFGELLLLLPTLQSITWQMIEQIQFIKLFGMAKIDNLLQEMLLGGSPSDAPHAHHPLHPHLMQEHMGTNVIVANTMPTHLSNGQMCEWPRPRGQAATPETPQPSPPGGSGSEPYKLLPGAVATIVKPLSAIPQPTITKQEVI
UniProt P41235, whole entry S87A: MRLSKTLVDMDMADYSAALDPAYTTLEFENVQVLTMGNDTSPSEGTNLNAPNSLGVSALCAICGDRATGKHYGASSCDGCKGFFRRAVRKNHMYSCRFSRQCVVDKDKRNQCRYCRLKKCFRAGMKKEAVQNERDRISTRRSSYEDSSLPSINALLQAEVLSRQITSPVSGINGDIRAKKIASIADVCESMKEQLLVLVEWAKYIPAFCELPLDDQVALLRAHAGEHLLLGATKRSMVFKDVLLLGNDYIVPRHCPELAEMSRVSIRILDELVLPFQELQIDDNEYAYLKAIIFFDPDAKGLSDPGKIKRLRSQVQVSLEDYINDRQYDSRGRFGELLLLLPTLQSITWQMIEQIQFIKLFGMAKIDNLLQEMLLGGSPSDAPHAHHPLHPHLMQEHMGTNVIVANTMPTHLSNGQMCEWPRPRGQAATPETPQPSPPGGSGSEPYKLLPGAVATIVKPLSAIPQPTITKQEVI

Question: Does “AAAGGTCCAAAGGGCGCCT (double strand) [ApoAI site A probe]” bind [1]?
Answer: Result: binds more weakly

Question: Does “AAAGGTCCAAAGGGCGCCT (double strand) [ApoAI site A probe]” bind [2]?
Answer: Result: binds more weakly

Question: Does “AAAGGTCCAAAGGGCGCCT (double strand) [ApoAI site A probe]” bind [3]?
Answer: Result: binds more weakly

Question: Does “AAAGGTCCAAAGGGCGCCT (double strand) [ApoAI site A probe]” bind [4]?
Answer: Result: binds

Question: Does “AAAGGTCCAAAGGGCGCCT (double strand) [ApoAI site A probe]” bind [5]?
Answer: Result: binds

— paper PMC6941224
